Test results: PubChem BioAssay AID248 (DTP/NCI, 2004)
The list is a part of this screen's results and no random one: it is rich in T/C values a quarter to a half above the control, in often repeated tests (any T/C) and in doses without a T/C. Other doses and runs of a compound stand elsewhere. T/C: endpoint of the treated group in % of that of the vehicle group. Some doses have a count of surviving animals in place of a T/C: the source files T/C as zero there, which appears to mark a toxic dose or a test without result, not a measured value. Some doses without a T/C left all or most animals alive at the check, yet need not have been tolerated: the source hardly ever lists a survival T/C far under the control, and the zero likely stands for such cases as well. Counts of survivors are from the toxicity check (mostly the fifth day) where no day follows; animals may have died later. Schedules are NCI's codes, taken here to give the interval after Q, in days (D) or hours (H), and the number of doses after X. Some schedules carry Z or #; the key to these is not given. For survival time, the PubChem record calls one and a half times the control and up active, and a quarter to a half above the control has no call in these data; cut-offs in other NCI protocols can differ. Some T/C values are followed by the survivors on the day toxicity was checked, most often the fifth; without a count, all were alive then.

Test system: L1210 leukemia ip in BDF1 mice, survival T/C
Assay: NCI In Vivo Anticancer Drug Screen. Data for tumor model L1210 Leukemia (intraperitoneal) in B6D2F1 (BDF1) mice
Details: T/C endpoint: mean survival time, higher T/C = longer survival
[1] = dose: 400.0 mg/kg/injection, schedule: Q04DX003 (ip), vehicle: saline
[2] = dose: 200.0 mg/kg/injection, schedule: Q04DX003 (ip), vehicle: saline
[3] = dose: 400.0 mg/kg/injection, schedule: Q01DX001 (ip), vehicle: saline
[4] = dose: 400.0 mg/kg/injection, schedule: Q04DX003 (ip), vehicle: Klucel (hydroxypropylcellulose) (HPC)
[5] = dose: 200.0 mg/kg/injection, schedule: Q01DX009 (ip), vehicle: Klucel (hydroxypropylcellulose) (HPC)
[6] = dose: 200.0 mg/kg/injection, schedule: Q04DX003 (ip), vehicle: saline with Tween-80
[7] = dose: 400.0 mg/kg/injection, schedule: Q04DX003 (ip), vehicle: saline with Tween-80
[8] = dose: 200.0 mg/kg/injection, schedule: Q01DX009 (ip), vehicle: other
[9] = dose: 100.0 mg/kg/injection, schedule: Q04DX003 (ip), vehicle: saline with Tween-80
[10] = dose: 50.0 mg/kg/injection, schedule: Q04DX002 (ip), vehicle: Klucel (hydroxypropylcellulose) (HPC)
[11] = dose: 100.0 mg/kg/injection, schedule: Q04DX002 (ip), vehicle: Klucel (hydroxypropylcellulose) (HPC)
[12] = dose: 200.0 mg/kg/injection, schedule: Q04DX002 (ip), vehicle: Klucel (hydroxypropylcellulose) (HPC)
[13] = dose: 400.0 mg/kg/injection, schedule: Q04DX002 (ip), vehicle: Klucel (hydroxypropylcellulose) (HPC)
[14] = dose: 200.0 mg/kg/injection, schedule: Q01DX009 (ip), vehicle: saline

For Oc1ccc2ccccc2c1N=Nc1ccc(Cl)cc1, the survivor count (dose: 400.0 mg/kg/injection, schedule: Q01DX009 (ip), vehicle: carboxymethylcellulose (CMC)) was 6 of 6.
In the case of O=S(=O)(O)c1cc(O)c2cc(Nc3ccccc3)ccc2c1, the survivor count [1] is reported as 3 of 6.
With BrCc1cccc2ccccc12 the survivor count (dose: 150.0 mg/kg/injection, schedule: Q01DX009 (ip), vehicle: saline) was 3 of 6, the survivor count [2] was 6 of 6 and the survivor count (dose: 225.0 mg/kg/injection, schedule: Q01DX009 (ip), vehicle: saline) was 1 of 6. The survivor count (dose: 335.0 mg/kg/injection, schedule: Q01DX009 (ip), vehicle: saline) was 0 of 6 and the survivor count [3] was 0 of 6.
NC(=S)NS(=O)(=O)c1ccc(N)cc1 was tested, and the T/C (dose: 200.0 mg/kg/injection, schedule: Q01DX001 (ip), vehicle: saline) was 127 % of control [3 of 4 alive].
For CC(=O)N/C(N)=N/N=C(C)/C=N\N, the survivor count (dose: 240.0 mg/kg/injection, schedule: Q01DX Z (oral), vehicle: carboxymethylcellulose (CMC)) was 1 of 6, the survivor count (dose: 480.0 mg/kg/injection, schedule: Q01DX Z (oral), vehicle: carboxymethylcellulose (CMC)) was 1 of 6 and the survivor count (dose: 960.0 mg/kg/injection, schedule: Q01DX Z (oral), vehicle: carboxymethylcellulose (CMC)) was 1 of 6.
For CN(C)C/C(=N\O)c1ccc(Cl)cc1, the survivor count [3] was 0 of 6.
With O=C(Nc1ccc(NC(=O)Nc2cccc(C3=NCCN3)c2)cc1)Nc1ccc(C2=NCCN2)cc1 the T/C (dose: 9.0 mg/kg/injection, schedule: Q01DX Z (ip), vehicle: carboxymethylcellulose (CMC)) was 137 % of control, the survivor count (dose: 72.0 mg/kg/injection, schedule: Q01DX Z (ip), vehicle: carboxymethylcellulose (CMC)) was 0 of 6 and the survivor count (dose: 250.0 mg/kg/injection, schedule: Q01DX Z (ip), vehicle: saline) was 3 of 6. The survivor count (dose: 500.0 mg/kg/injection, schedule: Q01DX Z (ip), vehicle: saline) was 0 of 6.
COc1ccc2c(c1)CCNC2CCO (stereo unspecified) was tested, and the survivor count [2] was 0 of 6 and the survivor count [1] was 0 of 6.
CC(=O)NN=C1CCC(=NNC(C)=O)CC1 was tested, and the survivor count (dose: 200.0 mg/kg/injection, schedule: Q04DX003 (ip), vehicle: Klucel (hydroxypropylcellulose) (HPC)) was 6 of 6 and the survivor count [4] was 1 of 6.
O/N=C\c1ccccc1 was tested, and the survivor count [5] was 6 of 6.
With O=c1ccc2nc3ccccc3sc-2c1 the survivor count [6] was 5 of 6 and the survivor count [7] was 6 of 6.
With CNCCc1ccc2cc(OC)c(OC)cc2c1 the survivor count [6] was 2 of 6 and the survivor count [7] was 0 of 6.
CN=C(c1ccc(NC(=O)c2ccc(C(=O)Nc3ccc(C(=NC)N(C)Cc4ccccc4)cc3)cc2)cc1)N(C)Cc1ccccc1 was tested, and the survivor count (dose: 15.0 mg/kg/injection, schedule: Q01DX Z (ip), vehicle: saline) was 6 of 6.
For O=NN1C(=O)N[C@@H]2[C@H]1CS[C@@H]2CCCCC(=O)O, the survivor count (dose: 500.0 mg/kg/injection, schedule: Q01DX001 (ip), vehicle: carboxymethylcellulose (CMC)) was 6 of 6 and the survivor count (dose: 1000.0 mg/kg/injection, schedule: Q01DX001 (ip), vehicle: carboxymethylcellulose (CMC)) was 6 of 6.
For CCCCN(C)N=Nc1ccccc1C(N)=O, the T/C (dose: 89.0 mg/kg/injection, schedule: Q01DX009 (ip), vehicle: other) was 134 % of control, the T/C (dose: 133.0 mg/kg/injection, schedule: Q01DX009 (ip), vehicle: Klucel (hydroxypropylcellulose) (HPC)) was 128 % of control [5 of 6 alive] and the T/C (dose: 133.0 mg/kg/injection, schedule: Q01DX009 (ip), vehicle: other) was 126 % of control. The survivor count [5] was 2 of 6, the T/C [8] was 137 % of control and the T/C (dose: 600.0 mg/kg/injection, schedule: Q01DX001 (ip), vehicle: other) was 136 % of control.
In the case of O=C(CC(O)(C(F)(F)F)C(F)(F)F)c1ccc(C(=O)CC(O)(C(F)(F)F)C(F)(F)F)cc1, the survivor count [8] is reported as 2 of 6.
In the case of CC(C)CCCC(C)C1CCC2C3=CC=C4CC(OC(=O)c5cc([N+](=O)[O-])cc([N+](=O)[O-])c5)CCC4(C)C3CCC21C (stereo unspecified), the survivor count (dose: 400.0 mg/kg/injection, schedule: Q01DX001 (ip), vehicle: other) is reported as 3 of 3.
With O=C1C=CC(=O)N1c1ccc(Cl)cc1Br the survivor count [9] was 0 of 6, the survivor count [6] was 0 of 6 and the survivor count [7] was 0 of 6.
NCc1ccc([N+](=O)[O-])cc1 was tested, and the survivor count [3] was 1 of 3 and the survivor count [1] was 3 of 6.
For C[CH2][Pb]([CH2]C)([CH2]C)[O]C(=O)c1ccc(N)cc1, the survivor count [10] was 1 of 3, the survivor count [11] was 0 of 3 and the survivor count [12] was 0 of 3. The survivor count [13] was 0 of 3.
For C1CCC(C2CCCC[N-]2)[N-]C1.[Cl][Cu][Cl] (stereo unspecified), the survivor count (dose: 12.5 mg/kg/injection, schedule: Q01DX009 (ip), vehicle: Klucel (hydroxypropylcellulose) (HPC)) was 4 of 6, the survivor count (dose: 25.0 mg/kg/injection, schedule: Q01DX009 (ip), vehicle: Klucel (hydroxypropylcellulose) (HPC)) was 0 of 6 and the survivor count (dose: 50.0 mg/kg/injection, schedule: Q01DX009 (ip), vehicle: Klucel (hydroxypropylcellulose) (HPC)) was 0 of 6. For the same compound, the survivor count (dose: 100.0 mg/kg/injection, schedule: Q01DX009 (ip), vehicle: Klucel (hydroxypropylcellulose) (HPC)) was 0 of 6, the survivor count [5] was 0 of 6 and the survivor count (dose: 400.0 mg/kg/injection, schedule: Q01DX009 (ip), vehicle: Klucel (hydroxypropylcellulose) (HPC)) was 0 of 6.
With CCCC(=O)CC(=O)C(F)(F)F.CCCC(=O)CC(=O)C(F)(F)F.CCCC(=O)CC(=O)C(F)(F)F.[Er] the survivor count (dose: 400.0 mg/kg/injection, schedule: Q01DX009 (ip), vehicle: other) was 3 of 6.
For CCN(CC)CC(=O)NCC(CCN1CCCCC1)(Cc1cccc2ccccc12)C(C)C (stereo unspecified), the survivor count (dose: 100.0 mg/kg/injection, schedule: Q01DX009 (ip), vehicle: saline) was 0 of 6, the survivor count [14] was 0 of 6 and the survivor count (dose: 400.0 mg/kg/injection, schedule: Q01DX009 (ip), vehicle: saline) was 0 of 6.
NCCCOc1ccc([N+](=O)[O-])cc1Cl was tested, and the survivor count (dose: 300.0 mg/kg/injection, schedule: Q01DX001 (ip), vehicle: saline) was 1 of 6 and the survivor count [1] was 0 of 6.
BrCOCCCCOCBr was tested, and the T/C (dose: 100.0 mg/kg/injection, schedule: Q01DX009 (ip), vehicle: saline with Tween-80) was 126 % of control [2 of 2 alive].
COc1ccc(NC(=O)Oc2ccccc2Cc2ccccc2)cc1 was tested, and the survivor count [4] was 6 of 6.
In the case of O=C(O)CC(Br)C(=O)c1ccccc1 (stereo unspecified), the survivor count [9] is reported as 6 of 6, the survivor count [6] is reported as 5 of 6 and the survivor count [7] is reported as 1 of 6.
For C=Nc1ccc(Cl)cc1, the survivor count (dose: 400.0 mg/kg/injection, schedule: Q01DX001 (ip), vehicle: carboxymethylcellulose (CMC)) was 1 of 4.
In the case of CCCCCCC(O)/C=C/c1ccc(Cl)cc1 (stereo unspecified), the survivor count (dose: 400.0 mg/kg/injection, schedule: Q01DX009 (ip), vehicle: saline with Tween-80) is reported as 6 of 6.
In the case of O=C(CCl)NCc1cnccn1, the survivor count [14] is reported as 1 of 6, the survivor count (dose: 300.0 mg/kg/injection, schedule: Q01DX009 (ip), vehicle: saline) is reported as 0 of 6 and the survivor count [1] is reported as 0 of 6.
With COc1ccc(CC[n+]2cccc(C#N)c2)cc1OC the survivor count (dose: 300.0 mg/kg/injection, schedule: Q01DX001 (ip), vehicle: carboxymethylcellulose (CMC)) was 3 of 6.
O=c1cc(-c2ccccc2)[nH]c(=S)[nH]1 was tested, and the survivor count (dose: 200.0 mg/kg/injection, schedule: Q01DX009 (ip), vehicle: saline with Tween-80) was 6 of 6.
With C[CH2][Pb]([CH2]C)([CH2]C)[N]1C(=O)c2c(Cl)c(Cl)c(Cl)c(Cl)c2C1=O the survivor count (dose: 25.0 mg/kg/injection, schedule: Q04DX002 (ip), vehicle: Klucel (hydroxypropylcellulose) (HPC)) was 2 of 3, the survivor count [10] was 0 of 3 and the survivor count [11] was 0 of 3. For the same compound, the survivor count [12] was 0 of 3 and the survivor count [13] was 0 of 3.
COC(=O)C1C2CC3c4[nH]c5cc(OC)ccc5c4CCN3CC2CC(O)C1OC (stereo unspecified) was tested, and the survivor count [12] was 1 of 3 and the survivor count [13] was 0 of 3.
